The list shows a part of the results, in another mix than the full data.

Protein sequences, listed by entry. Tags and fused reporters are not part of them. Lines headed by an entry give the natural chain unless they say otherwise; changes in a name come on top.
UniProt Q96S15: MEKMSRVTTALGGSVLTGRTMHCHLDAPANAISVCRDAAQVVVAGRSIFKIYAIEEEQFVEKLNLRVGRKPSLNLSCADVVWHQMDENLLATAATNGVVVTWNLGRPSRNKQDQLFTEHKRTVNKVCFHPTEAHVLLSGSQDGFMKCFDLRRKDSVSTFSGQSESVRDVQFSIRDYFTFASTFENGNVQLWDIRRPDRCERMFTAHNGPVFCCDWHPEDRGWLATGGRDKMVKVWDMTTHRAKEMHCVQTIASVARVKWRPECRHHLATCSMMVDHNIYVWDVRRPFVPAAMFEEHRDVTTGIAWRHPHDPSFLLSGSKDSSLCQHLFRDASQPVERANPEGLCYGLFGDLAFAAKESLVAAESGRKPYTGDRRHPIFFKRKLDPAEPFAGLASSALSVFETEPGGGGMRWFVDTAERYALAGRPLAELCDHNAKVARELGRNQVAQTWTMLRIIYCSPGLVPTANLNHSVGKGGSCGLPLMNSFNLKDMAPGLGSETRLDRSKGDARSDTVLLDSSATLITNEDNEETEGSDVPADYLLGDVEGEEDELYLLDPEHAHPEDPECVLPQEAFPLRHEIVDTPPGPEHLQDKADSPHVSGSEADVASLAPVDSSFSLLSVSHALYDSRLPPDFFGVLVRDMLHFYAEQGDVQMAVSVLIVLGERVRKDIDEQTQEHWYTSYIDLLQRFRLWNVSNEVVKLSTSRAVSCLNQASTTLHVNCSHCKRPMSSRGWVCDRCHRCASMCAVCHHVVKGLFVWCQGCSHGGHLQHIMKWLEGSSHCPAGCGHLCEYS
UniProt Q99961: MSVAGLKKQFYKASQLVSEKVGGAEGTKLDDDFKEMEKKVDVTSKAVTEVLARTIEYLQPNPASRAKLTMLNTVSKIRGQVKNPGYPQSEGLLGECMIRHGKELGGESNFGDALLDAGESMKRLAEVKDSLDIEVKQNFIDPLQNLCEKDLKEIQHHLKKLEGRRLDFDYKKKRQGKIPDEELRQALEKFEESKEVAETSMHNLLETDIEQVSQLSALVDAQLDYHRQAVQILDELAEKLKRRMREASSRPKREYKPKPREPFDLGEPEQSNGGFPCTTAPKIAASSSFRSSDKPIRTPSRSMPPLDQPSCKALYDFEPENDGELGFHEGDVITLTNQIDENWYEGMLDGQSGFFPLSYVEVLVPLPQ
UniProt Q99832: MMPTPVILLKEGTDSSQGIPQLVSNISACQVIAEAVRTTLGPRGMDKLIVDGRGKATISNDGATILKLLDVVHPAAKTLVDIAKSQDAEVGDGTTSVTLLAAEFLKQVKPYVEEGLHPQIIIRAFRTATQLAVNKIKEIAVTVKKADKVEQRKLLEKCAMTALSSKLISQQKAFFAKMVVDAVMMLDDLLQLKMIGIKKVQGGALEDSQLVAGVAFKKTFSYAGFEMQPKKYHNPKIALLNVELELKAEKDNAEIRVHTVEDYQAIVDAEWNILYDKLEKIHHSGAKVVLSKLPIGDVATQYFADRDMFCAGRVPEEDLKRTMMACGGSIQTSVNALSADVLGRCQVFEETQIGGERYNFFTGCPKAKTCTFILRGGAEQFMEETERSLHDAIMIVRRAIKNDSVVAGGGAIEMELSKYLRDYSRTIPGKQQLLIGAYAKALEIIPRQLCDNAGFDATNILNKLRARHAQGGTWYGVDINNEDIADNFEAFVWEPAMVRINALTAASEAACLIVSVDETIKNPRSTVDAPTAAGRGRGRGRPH
UniProt Q99538: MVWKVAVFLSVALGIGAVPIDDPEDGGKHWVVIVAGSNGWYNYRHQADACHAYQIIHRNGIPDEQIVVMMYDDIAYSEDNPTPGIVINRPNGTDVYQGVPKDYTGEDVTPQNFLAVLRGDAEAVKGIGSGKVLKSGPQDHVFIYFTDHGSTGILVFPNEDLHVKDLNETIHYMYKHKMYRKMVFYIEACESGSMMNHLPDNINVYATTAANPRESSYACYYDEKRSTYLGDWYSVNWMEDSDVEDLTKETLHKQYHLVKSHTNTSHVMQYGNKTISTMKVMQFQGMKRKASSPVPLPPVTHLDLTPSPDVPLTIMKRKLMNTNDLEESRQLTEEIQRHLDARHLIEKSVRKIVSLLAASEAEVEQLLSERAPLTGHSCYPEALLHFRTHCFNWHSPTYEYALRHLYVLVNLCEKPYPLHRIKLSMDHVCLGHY
UniProt Q96T88: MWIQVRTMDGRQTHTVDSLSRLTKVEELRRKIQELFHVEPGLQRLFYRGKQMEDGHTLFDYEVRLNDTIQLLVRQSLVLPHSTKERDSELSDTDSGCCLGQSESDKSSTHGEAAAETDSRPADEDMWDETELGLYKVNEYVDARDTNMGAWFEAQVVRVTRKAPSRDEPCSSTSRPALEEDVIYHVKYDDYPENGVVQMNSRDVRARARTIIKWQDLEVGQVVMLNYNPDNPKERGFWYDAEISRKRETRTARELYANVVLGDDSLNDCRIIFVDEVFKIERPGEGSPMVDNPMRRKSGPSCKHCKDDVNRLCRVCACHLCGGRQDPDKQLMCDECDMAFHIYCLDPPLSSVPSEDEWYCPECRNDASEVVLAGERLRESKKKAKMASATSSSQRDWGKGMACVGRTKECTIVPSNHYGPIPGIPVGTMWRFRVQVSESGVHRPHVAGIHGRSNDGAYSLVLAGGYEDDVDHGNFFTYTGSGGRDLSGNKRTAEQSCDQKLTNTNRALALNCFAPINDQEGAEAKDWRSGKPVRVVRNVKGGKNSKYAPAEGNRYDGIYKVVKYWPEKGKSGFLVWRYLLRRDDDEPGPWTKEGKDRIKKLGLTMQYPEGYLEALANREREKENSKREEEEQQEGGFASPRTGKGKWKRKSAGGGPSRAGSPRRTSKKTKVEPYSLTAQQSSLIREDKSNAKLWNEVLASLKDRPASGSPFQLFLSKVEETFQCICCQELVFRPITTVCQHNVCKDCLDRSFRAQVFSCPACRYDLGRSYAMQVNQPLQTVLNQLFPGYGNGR
UniProt Q9BQE3, whole entry, looked up: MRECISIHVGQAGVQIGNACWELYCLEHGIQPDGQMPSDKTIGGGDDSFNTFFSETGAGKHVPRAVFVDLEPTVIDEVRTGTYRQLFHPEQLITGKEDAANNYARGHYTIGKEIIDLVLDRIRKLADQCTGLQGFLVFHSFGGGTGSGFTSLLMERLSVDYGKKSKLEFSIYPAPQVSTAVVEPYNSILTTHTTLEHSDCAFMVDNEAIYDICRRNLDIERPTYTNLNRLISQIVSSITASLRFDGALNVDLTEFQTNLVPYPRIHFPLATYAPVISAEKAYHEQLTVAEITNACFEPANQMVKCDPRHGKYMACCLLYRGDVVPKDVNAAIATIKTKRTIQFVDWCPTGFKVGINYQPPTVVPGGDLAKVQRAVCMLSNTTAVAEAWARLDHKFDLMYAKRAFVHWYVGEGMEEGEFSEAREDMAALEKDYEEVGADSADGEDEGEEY
UniProt Q99426: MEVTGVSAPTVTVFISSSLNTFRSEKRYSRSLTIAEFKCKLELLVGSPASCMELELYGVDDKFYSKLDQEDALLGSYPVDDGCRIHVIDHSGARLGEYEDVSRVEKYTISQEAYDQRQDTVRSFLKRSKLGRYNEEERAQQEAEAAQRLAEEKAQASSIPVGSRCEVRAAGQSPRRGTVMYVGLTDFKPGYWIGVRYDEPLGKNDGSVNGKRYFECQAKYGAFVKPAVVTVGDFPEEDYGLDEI
UniProt Q96IZ0: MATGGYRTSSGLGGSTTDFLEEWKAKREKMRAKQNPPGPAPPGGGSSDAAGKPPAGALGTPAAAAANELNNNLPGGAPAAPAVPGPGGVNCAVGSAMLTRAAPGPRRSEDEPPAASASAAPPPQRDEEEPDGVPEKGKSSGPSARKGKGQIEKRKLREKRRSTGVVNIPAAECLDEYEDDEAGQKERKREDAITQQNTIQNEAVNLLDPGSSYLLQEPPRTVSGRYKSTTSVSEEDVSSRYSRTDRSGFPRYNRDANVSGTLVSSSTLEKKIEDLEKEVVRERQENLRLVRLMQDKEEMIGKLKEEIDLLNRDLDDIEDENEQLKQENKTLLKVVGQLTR
UniProt Q96RY7: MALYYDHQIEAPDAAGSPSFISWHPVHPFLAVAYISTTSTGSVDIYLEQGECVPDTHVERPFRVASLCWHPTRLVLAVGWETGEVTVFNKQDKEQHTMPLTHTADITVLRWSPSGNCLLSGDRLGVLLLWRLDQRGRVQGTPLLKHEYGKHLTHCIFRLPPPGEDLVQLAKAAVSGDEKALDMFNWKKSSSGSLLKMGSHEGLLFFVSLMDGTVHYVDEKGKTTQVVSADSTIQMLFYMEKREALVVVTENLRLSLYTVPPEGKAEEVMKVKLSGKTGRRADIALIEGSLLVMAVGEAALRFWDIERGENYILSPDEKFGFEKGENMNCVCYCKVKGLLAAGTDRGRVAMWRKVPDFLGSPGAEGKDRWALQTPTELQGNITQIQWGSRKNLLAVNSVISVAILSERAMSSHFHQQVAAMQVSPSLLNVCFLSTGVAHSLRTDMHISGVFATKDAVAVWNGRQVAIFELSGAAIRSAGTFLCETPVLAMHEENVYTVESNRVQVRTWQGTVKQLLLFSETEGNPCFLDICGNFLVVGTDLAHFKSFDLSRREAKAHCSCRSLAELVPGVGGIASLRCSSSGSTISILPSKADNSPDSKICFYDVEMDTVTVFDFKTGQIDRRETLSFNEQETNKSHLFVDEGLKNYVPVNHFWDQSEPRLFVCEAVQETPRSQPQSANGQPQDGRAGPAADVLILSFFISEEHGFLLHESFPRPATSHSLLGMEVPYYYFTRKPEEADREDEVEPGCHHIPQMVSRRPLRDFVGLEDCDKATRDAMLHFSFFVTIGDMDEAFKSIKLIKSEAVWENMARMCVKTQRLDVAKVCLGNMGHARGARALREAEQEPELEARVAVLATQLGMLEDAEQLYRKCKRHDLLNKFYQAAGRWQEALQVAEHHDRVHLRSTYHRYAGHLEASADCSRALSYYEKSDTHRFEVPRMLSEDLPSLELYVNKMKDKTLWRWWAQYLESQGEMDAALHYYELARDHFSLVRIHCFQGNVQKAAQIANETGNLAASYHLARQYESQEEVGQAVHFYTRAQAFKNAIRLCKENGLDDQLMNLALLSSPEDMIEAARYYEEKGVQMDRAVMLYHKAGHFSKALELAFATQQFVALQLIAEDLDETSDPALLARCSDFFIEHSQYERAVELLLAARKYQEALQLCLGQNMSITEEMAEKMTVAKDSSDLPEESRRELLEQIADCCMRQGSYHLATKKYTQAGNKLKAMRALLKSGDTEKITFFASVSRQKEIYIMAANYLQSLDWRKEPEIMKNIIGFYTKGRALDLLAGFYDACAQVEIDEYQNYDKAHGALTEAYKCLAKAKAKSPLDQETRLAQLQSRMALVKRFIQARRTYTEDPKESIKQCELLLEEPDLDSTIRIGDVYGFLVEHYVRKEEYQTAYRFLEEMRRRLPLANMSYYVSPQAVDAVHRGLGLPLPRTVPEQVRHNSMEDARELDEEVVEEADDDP
UniProt Q96L34: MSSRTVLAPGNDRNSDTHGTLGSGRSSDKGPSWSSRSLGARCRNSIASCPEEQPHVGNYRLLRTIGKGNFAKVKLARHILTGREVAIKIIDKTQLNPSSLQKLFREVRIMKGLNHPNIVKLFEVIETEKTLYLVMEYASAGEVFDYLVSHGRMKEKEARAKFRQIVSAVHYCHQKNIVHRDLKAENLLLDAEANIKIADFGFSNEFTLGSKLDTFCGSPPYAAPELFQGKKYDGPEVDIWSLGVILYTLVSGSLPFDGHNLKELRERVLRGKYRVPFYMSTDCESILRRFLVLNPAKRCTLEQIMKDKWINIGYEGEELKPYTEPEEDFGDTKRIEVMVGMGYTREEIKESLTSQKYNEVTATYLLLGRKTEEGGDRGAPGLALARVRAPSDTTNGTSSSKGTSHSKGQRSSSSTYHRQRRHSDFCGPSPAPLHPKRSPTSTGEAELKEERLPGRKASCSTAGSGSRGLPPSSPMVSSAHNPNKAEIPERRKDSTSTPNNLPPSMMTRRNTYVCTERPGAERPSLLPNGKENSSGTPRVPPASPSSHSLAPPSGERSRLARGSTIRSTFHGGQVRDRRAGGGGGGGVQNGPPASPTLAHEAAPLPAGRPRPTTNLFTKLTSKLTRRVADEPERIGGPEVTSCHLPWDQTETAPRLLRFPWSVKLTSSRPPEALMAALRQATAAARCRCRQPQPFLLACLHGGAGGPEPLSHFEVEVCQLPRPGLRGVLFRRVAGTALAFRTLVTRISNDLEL
UniProt Q96NC0: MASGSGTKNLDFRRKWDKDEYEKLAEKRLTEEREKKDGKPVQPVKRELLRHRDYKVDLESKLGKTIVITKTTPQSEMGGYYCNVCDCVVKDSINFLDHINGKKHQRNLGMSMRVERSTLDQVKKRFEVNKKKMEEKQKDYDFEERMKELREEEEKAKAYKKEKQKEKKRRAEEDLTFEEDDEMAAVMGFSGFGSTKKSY

Compound in this experiment: COC(=O)C#Cc1ccccc1 [methyl 3-phenylpropiolate]
As to the kind of experiment: log2 ratio of iodoacetamide-alkyne labeling of the cysteine site, DMSO over compound (competition); higher = stronger covalent engagement of the cysteine by the compound, active = 1 or more. The note with it: 500 µM; treatment time 1 h; system: HEK293T cell lysate. The gist of the method: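 Reporter intensities give each cysteine's log2 competition ratio as the mean of control channels over the mean of compound channels. The samples were HEK293T lysate (2 mg/mL) given vehicle or electrophile (500 µM, 1 h, ambient temperature), then iodoacetamide alkyne (1 h), followed by click coupling to sCIP-TMT reagents, pooling, trypsin digestion overnight at 37 °C, streptavidin enrichment, acid elution, Orbitrap Eclipse LC-MS/MS with FAIMS and FragPipe quantification. Duplicate channels and three replicates were run, and cysteines quantified in only one replicate were discarded.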
For the target WDR24 C474 (UniProt Q96S15), the “log2 ratio of iodoacetamide-alkyne labeling” value (from here on “log2 ratio”) is inactive: -0.713. Take CPNE1 C4 (UniProt Q99829): the “log2 ratio” value was inactive: -0.0709.

As for AGAP3 C356 (UniProt Q96P47), the “log2 ratio” value was inactive: 0.61.

As to SH3GL1 C277 (UniProt Q99961), the “log2 ratio” value was inactive: 0.344. CCT7 C450 (UniProt Q99832): the “log2 ratio” value was inactive: 0.055. As to SIN3A C486 (UniProt Q96ST3), the “log2 ratio” value is inactive: -0.0562. As to DDX50 C417 (UniProt Q9BQ39), the “log2 ratio” value was inactive: 0.438. Take MYBBP1A C942 (UniProt Q9BQG0): the “log2 ratio” value was inactive: 0.523. For LGMN C219 (UniProt Q99538), the “log2 ratio” value was inactive: 0.865. As for EHMT2 C617 (UniProt Q96KQ7), the “log2 ratio” value was inactive: 0.759. For UHRF1 C512 (UniProt Q96T88), the “log2 ratio” value is inactive: 0.219. As to HSD17B10 C58 (UniProt Q99714), the “log2 ratio” value was inactive: 0.349. In the case of CNN2 C215 (UniProt Q99439) it was inactive: 0.929. In the case of ACO2 C448 (UniProt Q99798) it was active: 1.71; in that of FAM110A C114 (UniProt Q9BQ89), inactive: 0.175. With WDFY2 C290 (UniProt Q96P53), the “log2 ratio” value is inactive: -0.231. Turning to UHRF1 C762 (UniProt Q96T88), the “log2 ratio” value was inactive: 0.107. With VRK1 C250 (UniProt Q99986), the “log2 ratio” value is inactive: -0.179. For TUBA1C C376 (UniProt Q9BQE3), the “log2 ratio” value is inactive: 0.579. For GRWD1 C299 (UniProt Q9BQ67), the “log2 ratio” value was inactive: 0.364.

On to ATXN2 C852 (UniProt Q99700), for which the “log2 ratio” value was inactive: 0.736.

With TTC1 C149 (UniProt Q99614), the “log2 ratio” value was inactive: 0.156. With MIPEP C518 (UniProt Q99797), the “log2 ratio” value was inactive: -0.145.

In the case of DNAJC2 C394 (UniProt Q99543), the “log2 ratio” value was inactive: -0.101. On to ATAD5 C1529 (UniProt Q96QE3), for which the “log2 ratio” value is inactive: 0.295.

As to TBCB C83 (UniProt Q99426), the “log2 ratio” value was inactive: -0.0452. Regarding PBK C70 (UniProt Q96KB5), the “log2 ratio” value is inactive: 0.539. On to PAWR C173 (UniProt Q96IZ0), for which the “log2 ratio” value is inactive: 0.32.

CPNE1 C30 (UniProt Q99829): the “log2 ratio” value was inactive: -0.402.

As to POP1 C666 (UniProt Q99575), the “log2 ratio” value was inactive: -0.253. As for CNN2 C164 (UniProt Q99439), the “log2 ratio” value is inactive: 0.574. For the target MIPEP C649 (UniProt Q99797), the “log2 ratio” value was inactive: 0.385. For IFT140 C1360 (UniProt Q96RY7), the “log2 ratio” value is inactive: 0.195.

Turning to MARK4 C459 (UniProt Q96L34), the “log2 ratio” value is inactive: 0.636. Regarding UniProt Q96NC0_C85, the “log2 ratio” value is inactive: 0.128. For UHRF1 C759 (UniProt Q96T88) the value was inactive: 0.107; for EHMT2 C1175 (UniProt Q96KQ7), inactive: -0.0216.
